{"source": "paper PMC7862700", "note": "Only a part is listed here, and it is no random draw. At the low end of the ranking, values are background and their order means little.", "data": [{"target": "SPI1 (UniProt P17947)", "assay": "DAPPL (digital affinity profiling via proximity ligation, sequencing)", "conditions": "10 mM Tris-HCl pH 7.5, 50 mM NaCl, 1 mM DTT, 4% glycerol, room temperature, 30 min; GST-TFs on glutathione beads, 16-mer random dsDNA library, 0.1% …; high values mean tight binding; double strand, one strand shown; scale: fold enrichment (6-mer frequency, TF over GST control)", "values": [{"sequence": "ATGCCT", "binding signal": 1.32}, {"sequence": "ACACCC", "binding signal": 0.996}, {"sequence": "GCCTGT", "binding signal": 0.889}, {"sequence": "ATATCC", "binding signal": 2.43}, {"sequence": "GAAGGT", "binding signal": 0.847}, {"sequence": "GTGATG", "binding signal": 0.929}, {"sequence": "TCGAGA", "binding signal": 0.593}, {"sequence": "CTCGCA", "binding signal": 1.27}, {"sequence": "CAGAAG", "binding signal": 0.797}, {"sequence": "GGGGCT", "binding signal": 0.923}, {"sequence": "TACAGG", "binding signal": 1.12}, {"sequence": "CGCTAA", "binding signal": 0.96}, {"sequence": "CAATTT", "binding signal": 1.32}, {"sequence": "AAAGCC", "binding signal": 0.946}, {"sequence": "CACTCA", "binding signal": 1.08}, {"sequence": "AAAGTC", "binding signal": 0.982}, {"sequence": "CCACCA", "binding signal": 0.971}, {"sequence": "CGCAAC", "binding signal": 0.919}, {"sequence": "CCAAAG", "binding signal": 0.983}, {"sequence": "AGCCTA", "binding signal": 1.02}, {"sequence": "CGCCAC", "binding signal": 0.955}, {"sequence": "TTGGTC", "binding signal": 1.08}, {"sequence": "GGGAAA", "binding signal": 1.05}, {"sequence": "TCGCGT", "binding signal": 1}, {"sequence": "TTCCCA", "binding signal": 1.28}, {"sequence": "GCATTT", "binding signal": 1.58}, {"sequence": "TATCAA", "binding signal": 1.02}, {"sequence": "CGGATT", "binding signal": 0.98}, {"sequence": "TCGCTG", "binding signal": 0.972}, {"sequence": "CGCTGG", "binding signal": 0.968}, {"sequence": "TAGGCC", "binding signal": 0.938}, {"sequence": "ATGGCA", "binding signal": 1.21}, {"sequence": "CCCATA", "binding signal": 1.18}, {"sequence": "ACGCGC", "binding signal": 0.936}, {"sequence": "GCGCGT", "binding signal": 0.847}, {"sequence": "TAGATC", "binding signal": 0.942}, {"sequence": "CATTAC", "binding signal": 1.1}, {"sequence": "TTGAAG", "binding signal": 0.903}]}]}
